This note sets out measurements from patent US20180185504A1.

No constants are given. Whether binding was seen depends on the method and setting. Some results given as binding are weak or reduced against the parent protein; the word gives no strength.

This test has as its target monkey macaca fascicularis PRLR construct with an HA tag on HEK293/mfPRLR cells (macaca fascicularis). Put plainly: FACS on HEK293/mfPRLR; * = specific binding (table footnote).

B1: H1H6975N (antibody, human IgG1, V domains shown)
VH: EVHLVESGGGLVQPGGSLRLSCAASGFTFSSYEMNWVRQTPGKGLEWISHISSRSVIIYYADSVKGRFTISRDNAKNSLFLQMNSLRAEDTAVYFCAGITIFGIPEYWGQGTLVTVSS
VL: EIVLTQSPATLSLSPGERATLSCRASQSVSSYFAWYQQKPGQAPRLLIYDASSRATGIPTRFSGSGSGTDFTLTISSLEPEDFAVYYCQQRSSWPITFGQGTRLEIK
Consider B1, for which the binding entry is reported as “binds”.

B2: H1H6803P (antibody, human IgG1, V domains shown)
VH: EVQLVESGGGVVRPGGSLRLSCAASGFKFDDYGMTWVRHVPGKGLEWVSGINWNGGRTGYTDSVKGRFTISRDNAKNSLYLQMNSLRAEDTALYHCAGARRDAFDIWGQGTMVTVSS
VL: DIQMTQSPSSLSASIGDRVTITCRASQNIIKYLNWYQQNAGKAPKLLIYTASSLQSGVPSRFSGSGSGTDFTLTISSLQPEDFATYYCQQSSSSPYTFGQGTKLEIK
Take B2: the binding entry is listed as “binds”.

B3: H1H6800P (antibody, human IgG1, V domains shown)
VH: EVQLVESGGGLVQPGRSLRLSCAASGFTFDGYAMHWVRQGPGKGLEWVSGISWYSDTLGYADSVKGRFTISRDNAKNSLYLQMNSLRTEDTAFYYCAKISSSGWAFDYWGQGTLVTVSS
VL: EIVLTQSPGTLSLSPGERATLSCRASHSVSSAYLAWYQQKPGQTPRLLIYGTSSRATGIPDRFSGSGSGTDFTLTISRLEPEDFAVYYCQQYGSSPLFTFGPGTKVDIK
For the molecule B3, the binding entry is on record as “binds”.

B4: H1H6792P (antibody, human IgG1, V domains shown)
VH: EVQLVESGGGLVQPGRSLRLSCAASGFTLDDHAVHWVRQAPGKGLEWVSGISWNSVYIDYADSVKGRFTIFRDNAKNSLYLQMNSLRAEDTAFYYCARDIEGARDYWGQGTLVTVSS
VL: DIQMTQSPSSLSASVGDRVTITCRASQGIRNDLGWYQQKPGKAPKRLIYAASSLQSGVPSRFSGSGYGTEFTLTISSLQPEDFAPYYCLQHNSYPLTFGGGTKVEIK
As to B4, the binding result is “binds”.

B5: H1H6966N (antibody, human IgG1, V domains shown)
VH: QVQLVQSGAEVQKPGASVKVSCKVSGYTLTALSIHWVRQAPGKGLEWMGNFDPGDGETIHAQKFQGRVTMTGDTSTDTAYMELSSLRSEDTAVYYCVGVTFDYWGQGTLVTVSS
VL: EIVMTQSPATLSVSPGERATLSCRASQSVASNLAWYQQKPGQAPRLLLYGASTRATGIPARFSGSGSGTEFTLTISSLQSEDFALYYCQHYNNWPLTFGGGTKVEIK
Take B5: the binding entry is “binds”.

B6: H1H6967N (antibody, human IgG1, V domains shown)
VH: EVQLVESGGDLVHPGRSLRLSCAASGFPFDEYAMHWVRQVPGKGLEWVSGISWSNNNIGYADSVKGRFTISRDNAKNSLYLQMNSLRPEDTAFYYCAKSGIFDSWGQGTLVTVSS
VL: EIVMTQSPATLSVSPGERATLSCRASQSVSRDLAWYQQKPGQAPRLLIHGASTRATGIPARFSGSGSGAEFTLIISSLQSEDFAVYYCQQYNNWPLTFGGGTKVEIK
On to B6, for which the binding entry was “binds”.

B7: H1H6953N (antibody, human IgG1, V domains shown)
VH: EVQLLESGGGLVQPGGTLRLSCAASGFTFSAYAMSWVRQAPGKGLEWVSSINVRAGDTYYADSVKGRFTISRDNSKNTLFLLMNSLRAEDTAAYYCAKARYSSNWGFDFWGQGTLVTVSS
VL: DIVMTQSPDSLTVSLGARTTINCQSSQTILHSSNNHNYLAWYQQKPGLPPKLLIYWSSTRESGVPDRFSGSGSGTDFTLTISSLQAEDVAIYYCQQYSNTPYTFGQGTKLEIN
On to B7, for which the binding entry is “binds”.

B8: H1H6781P (antibody, human IgG1, V domains shown)
VH: EVQLVESGGDLVQPGESLRLSCTASGFTFNSYEMNWVRQAPGKGLEWVSYISSSGGTKYYVDSVKGRFTISRDNAKKSLYLQMNSLRADDTALYYCARLNGVDVFDIWGQGTMVTVSS
VL: DIQMTQSPSSLSASVGDRVTITCRASQDIFNYLAWFQQKPGKVPELLISAASTLQSGVPSRFSGSGSGTYFTLTISSLQPEDIATYYCQRYNSAPLTFGGGTKVEIK
Regarding B8, the binding result is listed as “binds”.

B9: H1H6785P (antibody, human IgG1, V domains shown)
VH: EVQLVESGGGLVQPGGSLRLSCAASGFTFSSYEMNWVRQAPGKGLEWISYISSRGGTIYYADSIKGRFTIYRDNARNSLYLQMNSLRAEDTAIYYCARLSGVDIFDIWGQGTMVTVSS
VL: DIQMTQSPSSLSASVGDRVTITCRASQGISNYLAWYQQKPGKVPKLLIYFASTLQSGVPSRFSGGGSGTDFTLTISSLQPEDVATYYCQRYNSAPLTFGGGTKVEIK
Take B9: the binding result is “binds”.

B10: H1H6960N (antibody, human IgG1, V domains shown)
VH: EVQLVESGGGLVKPGGSLRLSCAASGITFSSYSMNWVRQAPGKGLEWVSSISTRSSLIHYADSVKGRFTISRDNAKNSLYLQMNSLRDEDTAVYYCARWDAAAAFDYWGQGTLVIVSS
VL: DIQLTQSPSFLSASVGDRVTITCWASQGISSYLAWYQQKPGKAPKLLIYVASTLQSGVPSRFSGSGSGTEFTLTISSLQPEDFATYFCQQLNSYPLTFGGGTKVEIK
On to B10, for which the binding entry is on record as “binds”.

B11: H1H6762P (antibody, human IgG1, V domains shown)
VH: QVQLVESGGGVVQPGRSLRLSCAASGFTFSHYGMVWVRQPPGKGLEWVALISFDGTTKYYADSVKGRFTISRDNSKNTLYLQMNSLRAEDTAVYFCVGAIAAAAFDLWGRGTLVTVSS
VL: EIVMTQSPATLSVSPGERATLSCRASQSVSSDLAWYQQKPGQAPRLLIYSASARATGIPARFTGSGSGTDFTLTISSLQSEDFAVYYCQQYNNWPMYTFGQGTKLEIK
Consider B11, for which the binding result is given as “binds”.

B12: H1H6958N2 (antibody, human IgG1, V domains shown)
VH: QVQLVESGGGVVQPGRSLRLSCGASGFTFRNYGMQWVRQGPGKGLEWVTLISFDGNDKYYADSVKGRFTISRDNSKNTLFLQMNSLRTEDTAVYYCARGGDFDYWGQGTLVTVSS
VL: DIQMTQSPSSLSASVGDRVTITCRASQDIRKDLGWYQQKPGKAPKRLIYAASSLHSGVPSRFSGSGSGTEFTLTISSLQPEDFATYYCLQHNSYPMYTFGQGTKLEIK
As for B12, the binding result is “binds”.

B13: H1H6790P (antibody, human IgG1, V domains shown)
VH: EVQLVESGGGLVQPGGSLRLSCAASGFTFSSYAMTWVRQAPGKGLEWVSAITGSVGNTYYADSVKGRFTISRDNSKNTLYLQMNSLGAEDTAEYYCAKGAGMTTNWYLDLWGRGTLVTVSS
VL: DIVMTQSPDSLAVSLGARATINCKSSQSVLYSSNNQNYLTWYQQKPGQPPKLLIKWASTRESGVPDRFSGSGSGTDFTLTISSLQAEDVAVYYCQQYASSPYTFGQGTKLEIK
Take B13: the binding entry is reported as “binds”.

B14: H1H6765P (antibody, human IgG1, V domains shown)
VH: EVQLVESGGGVVRPGGSLRLSCVGSGFSFDDHGMNWVRQGPGKGLEWVSGFNWNGGSTNYAESVKGRFTISRDNARNSLFLQMNSLRAEDTALYYCVRGRSGWFNDAFDVWGPGTMVTVSS
VL: EIVLTQSPGTLSLSPGERATLSCRASQTINSNYLAWYRQKPGQTPRLLIYGTSSRATGIPDRFSGSGSGTDFSLTISRLEPEDFAVFYCQQYAGLPTFGPGTKVDIK
On to B14, for which the binding entry is on record as “binds”.
